PubChem BioAssay AID504774 | Drosophila RNAi Screening Center – 2011
The screen tested about 23,000 reagents; below is an unselected part of those with a known target gene and a result. 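Values are quantile-normalised luminescence on an arbitrary scale; higher means more cells surviving MMS.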 Reagents against one gene are numbered here. A plus sign joins genes that one reagent is predicted to hit. Not all columns of the deposit are shown.

Test: 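Fly genes whose loss alters survival after alkylation damage to DNA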 (primary screen)
Cell system: Drosophila Kc167 cells
Knock-down reagent: long dsRNA against Drosophila genes, about 0.25 µg dsRNA per well
Timing: about 6 days: 3 days knock-down, then 3 days with or without MMS
Conditions: methyl methanesulphonate 0.004% (w/v) for 3 days after knock-down
Read-out: 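ATP-dependent luminescence as a measure of live cells in MMS-exposed wells, quantile normalised within each plate, with replicate values also given as a mean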
Scale: mean viability with MMS: higher = more surviving cells after MMS

After knock-down of CG33458, the screen gave mean viability with MMS 3.51e6.
With knock-down of CG34236 the results were mean viability with MMS 3.46e6.
With knock-down of Ccp84Ac, the screen gave mean viability with MMS 3.61e6.
Against mtTFB1 + Ccdc56, the values are mean viability with MMS 3.71e6.
CG31122 #1 showed mean viability with MMS 3.49e6.
Silencing of CG31122 #2 resulted in: mean viability with MMS 3.56e6.
CG13708 gave mean viability with MMS 3.67e6.
Against CG5412, the values are mean viability with MMS 3.54e6.
For edin, the entry reads mean viability with MMS 3.53e6.
With knock-down of BomS5, the record shows mean viability with MMS 3.50e6.
For Adgf-C, the entry reads mean viability with MMS 3.51e6.
Silencing of Cpr97Eb resulted in: mean viability with MMS 3.64e6.
DCX-EMAP #1 gave mean viability with MMS 3.57e6.
DCX-EMAP #2 showed mean viability with MMS 3.28e6.

Copied from above for reference:
CG5412 | mean viability with MMS = 3.54e6
edin | mean viability with MMS = 3.53e6
